Data taken from the supplement of paper PMC9233669.
This sample is rich in variants without activity.

How the values were obtained:
biotinyl-Ile-oxazolone = assay: self-aminoacylation, catalytic enhancement (BIO) (fold over background); higher = more active; k-Seq, kA / k0A0; sequences stand for … in GGGAAUGGAUCCACAUCUACGAAUUC…UUCACUGCAGACUUGACGAAGCUG
Procedure, shortened: (§1)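 The uncatalyzed rate is the low-activity peak of a bimodal Gaussian fit, and catalytic enhancement is median kA divided by it. The kA values came from pseudo-first-order fits, with 1000 bootstraps, of per-sequence fraction reacted measured by streptavidin capture, triplicate qPCR and Illumina sequencing. Mutagenized RNA pools with a 21-nt variable region (0.43 μM) were reacted with each biotinyl-aminoacyl-oxazolone at 2–1250 μM in 50 μL HEPES/NaCl/KCl/MgCl2/CaCl2 buffer with 5% acetonitrile, pH 6.9–7.0, for 90 minutes at room temperature.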

biotinyl-Met-oxazolone = assay: self-aminoacylation, catalytic enhancement (BMO) (fold over background); higher = more active; k-Seq, kA / k0A0; sequences stand for … in GGGAAUGGAUCCACAUCUACGAAUUC…UUCACUGCAGACUUGACGAAGCUG
Procedure, shortened: as §1

biotinyl-Phe-oxazolone = assay: self-aminoacylation, catalytic enhancement (BFO) (fold over background); higher = more active; k-Seq, kA / k0A0; sequences stand for … in GGGAAUGGAUCCACAUCUACGAAUUC…UUCACUGCAGACUUGACGAAGCUG
Procedure, shortened: as §1

biotinyl-Leu-oxazolone = assay: self-aminoacylation, catalytic enhancement (BLO) (fold over background); higher = more active; k-Seq, kA / k0A0; sequences stand for … in GGGAAUGGAUCCACAUCUACGAAUUC…UUCACUGCAGACUUGACGAAGCUG
Procedure, shortened: as §1

biotinyl-Val-oxazolone = assay: self-aminoacylation, catalytic enhancement (BVO) (fold over background); higher = more active; k-Seq, kA / k0A0; sequences stand for … in GGGAAUGGAUCCACAUCUACGAAUUC…UUCACUGCAGACUUGACGAAGCUG
Procedure, shortened: as §1

biotinyl-Trp-oxazolone = assay: self-aminoacylation, catalytic enhancement (BWO) (fold over background); higher = more active; k-Seq, kA / k0A0; sequences stand for … in GGGAAUGGAUCCACAUCUACGAAUUC…UUCACUGCAGACUUGACGAAGCUG
Procedure, shortened: as §1

Row | Sequence | self-aminoacylation (biotinyl-Ile-oxazolone) | self-aminoacylation (biotinyl-Met-oxazolone) | self-aminoacylation (biotinyl-Phe-oxazolone) | self-aminoacylation (biotinyl-Leu-oxazolone) | self-aminoacylation (biotinyl-Val-oxazolone) | self-aminoacylation (biotinyl-Trp-oxazolone)
1 | CUACUUCAAAUAAUAGGUCUG [Fam1A.1 aminoacylation ribozyme variant] | 0.751 | 0.561 | 0.75 | 0.636 | 0.66 | 0.599
2 | CUACUUCAACCAACCGGUCUG [Fam1A.1 aminoacylation ribozyme variant] | 0.85 | 0.949 | 1.5 | 1.08 | 0.802 | 0.896
3 | CUACUUCAAUCAAUCGCUCUG [Fam1A.1 aminoacylation ribozyme variant] | 0.737 | 0.675 | 0.772 | 0.577 | 0.736 | 0.702
4 | CUACUUCAAUCAAUCUGUCUG [Fam1A.1 aminoacylation ribozyme variant] | 0.599 | 0.539 | 1.25 | 0.57 | 0.597 | 0.721
5 | CUACUUCAAUCAAUGGGUCUG [Fam1A.1 aminoacylation ribozyme variant] | 0.889 | 0.801 | 0.579 | 0.912 | 0.809 | 0.627
6 | CUACUUCAGACAAUAGGUCUG [Fam1A.1 aminoacylation ribozyme variant] | 0.676 | 0.662 | 1.08 | 0.75 | 0.791 | 0.478
7 | CUACUUCAUACAAUCAGUCUG [Fam1A.1 aminoacylation ribozyme variant] | 0.678 | 0.494 | 1.09 | 0.638 | 0.769 | 0.563
8 | CUACUUCAUACAAUCGGCCUG [Fam1A.1 aminoacylation ribozyme variant] | 1.24 | 0.87 | 0.744 | 1.22 | 1.19 | 1.18
9 | CUACUUCAUACAAUCGGUUUG [Fam1A.1 aminoacylation ribozyme variant] | 0.64 | 0.538 | 0.619 | 0.602 | 0.541 | 0.425
10 | CUACUUCAUGCAAUCGGUCUG [Fam1A.1 aminoacylation ribozyme variant] | 0.803 | 0.765 | 1.11 | 0.804 | 0.873 | 0.712
11 | CUACUUCAUUCAAUCGGUCUG [Fam1A.1 aminoacylation ribozyme variant] | 0.654 | 0.775 | 0.781 | 0.609 | 0.626 | 0.475
12 | CUACUUCCAACAAUUGGUCUG [Fam1A.1 aminoacylation ribozyme variant] | 0.817 | 0.718 | 0.55 | 0.776 | 0.839 | 0.536
13 | CUACUUCGAACAAUCAGUCUG [Fam1A.1 aminoacylation ribozyme variant] | 0.562 | 0.476 | 0.545 | 0.464 | 0.453 | 0.331
14 | CUACUUCGAACAAUCGGUCUU [Fam1A.1 aminoacylation ribozyme variant] | 0.937 | 0.938 | 0.723 | 1.02 | 0.856 | 0.466
15 | CUACUUCGAACACUCGGUCUG [Fam1A.1 aminoacylation ribozyme variant] | 1.02 | 1.04 | 3.18 | 1.32 | 1.18 | 1
16 | CUACUUCUAACAAUCGGUCUA [Fam1A.1 aminoacylation ribozyme variant] | 0.732 | 0.725 | 0.937 | 0.692 | 0.752 | 0.461
17 | CUACUUCUAACAAUCGGUUUG [Fam1A.1 aminoacylation ribozyme variant] | 0.513 | 0.564 | 0.679 | 0.469 | 0.598 | 0.466
18 | CUACUUCUAACAAUCUGUCUG [Fam1A.1 aminoacylation ribozyme variant] | 0.693 | 0.58 | 0.716 | 0.615 | 0.634 | 0.482
19 | CUACUUCUAAGAAUCGGUCUG [Fam1A.1 aminoacylation ribozyme variant] | 0.696 | 0.804 | 0.516 | 0.664 | 0.743 | 0.558
20 | CUACUUUAAACAAUCAGUCUG [Fam1A.1 aminoacylation ribozyme variant] | 0.863 | 0.798 | 1.16 | 0.764 | 0.868 | 0.671
21 | CUACUUUAAACAAUCGGUAUG [Fam1A.1 aminoacylation ribozyme variant] | 0.692 | 0.887 | 0.659 | 0.595 | 0.558 | 0.463
22 | CUACUUUAAAGAAUCGGUCUG [Fam1A.1 aminoacylation ribozyme variant] | 0.827 | 0.871 | 0.762 | 0.793 | 0.822 | 0.705
23 | CUAGUUCAAACAAUCGAUCUG [Fam1A.1 aminoacylation ribozyme variant] | 0.752 | 0.619 | 0.99 | 0.641 | 0.663 | 0.622
